For experiment [1], the target named is T1, HA-tagged iR2-1-374, nuclear N-terminal fragment of mouse iRhom2 (tetracycline inducible) (mouse) (UniProt Q80WQ6).
T1 sequence: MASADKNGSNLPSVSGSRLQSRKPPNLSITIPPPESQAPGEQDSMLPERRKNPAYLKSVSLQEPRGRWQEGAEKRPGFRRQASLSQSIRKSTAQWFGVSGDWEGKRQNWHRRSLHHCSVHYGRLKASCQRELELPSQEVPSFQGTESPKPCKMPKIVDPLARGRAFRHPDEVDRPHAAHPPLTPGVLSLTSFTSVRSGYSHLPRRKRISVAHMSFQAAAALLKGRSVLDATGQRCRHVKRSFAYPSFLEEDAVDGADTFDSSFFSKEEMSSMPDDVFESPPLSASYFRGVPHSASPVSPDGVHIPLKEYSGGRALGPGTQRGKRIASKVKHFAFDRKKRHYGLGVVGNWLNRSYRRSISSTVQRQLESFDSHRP
As to the kind of experiment: co-IP; HEK293T stably expressing tetracycline-inducible HA-tagged iR2-1-374; IP: HA; immunoblot for endogenous nuclear proteins.

Experiment [2] addresses T2, wild-type mouse iRhom2 with C-terminal HA tag (pEGFP-N1-iR2-HA-WT) (mouse) (UniProt Q80WQ6).
T2 sequence: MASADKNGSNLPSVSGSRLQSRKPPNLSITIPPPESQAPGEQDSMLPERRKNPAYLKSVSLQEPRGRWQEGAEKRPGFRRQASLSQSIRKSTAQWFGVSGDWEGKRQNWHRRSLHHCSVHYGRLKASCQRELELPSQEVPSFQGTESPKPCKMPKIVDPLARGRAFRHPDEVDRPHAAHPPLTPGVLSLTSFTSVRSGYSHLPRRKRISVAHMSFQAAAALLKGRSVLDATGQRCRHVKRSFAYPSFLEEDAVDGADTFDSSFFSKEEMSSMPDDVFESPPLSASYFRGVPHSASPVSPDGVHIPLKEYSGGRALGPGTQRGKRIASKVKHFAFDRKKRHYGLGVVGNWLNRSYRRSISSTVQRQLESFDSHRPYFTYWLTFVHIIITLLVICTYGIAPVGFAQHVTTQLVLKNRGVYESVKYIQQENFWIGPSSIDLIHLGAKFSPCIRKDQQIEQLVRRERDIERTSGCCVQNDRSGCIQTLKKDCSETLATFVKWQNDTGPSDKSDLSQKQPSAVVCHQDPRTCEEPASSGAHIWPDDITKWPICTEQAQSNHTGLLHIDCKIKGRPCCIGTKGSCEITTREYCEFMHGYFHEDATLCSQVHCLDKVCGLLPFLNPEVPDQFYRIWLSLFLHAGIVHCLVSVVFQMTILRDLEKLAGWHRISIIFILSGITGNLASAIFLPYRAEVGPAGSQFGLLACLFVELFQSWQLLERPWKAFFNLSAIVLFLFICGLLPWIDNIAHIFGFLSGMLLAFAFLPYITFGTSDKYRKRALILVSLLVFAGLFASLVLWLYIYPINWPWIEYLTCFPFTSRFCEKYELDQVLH
In words: co-IP; HEK293T transfected with HA-tagged iRhom2 constructs and SEC11A, 36-48 h; Triton X-100 lysate; IP: HA with anti-HA magnetic beads, 4°C overnight; washes with 500 mM NaCl; immunoblot. On the technique in general: Immunoblotting shows a protein as a band on a membrane.

No constants are given. Whether binding was seen depends on the method and setting. In cells and extracts the contact can be indirect. Some results given as binding are weak or reduced against the parent protein; the word gives no strength. Sequences can lack the tags named with a protein.

With “C-terminal binding protein 2 (CtBP2) (from UniProt P56545 1-445)”, the binding entry in experiment [1] is given as “binds”.

B1: SEC11A, catalytic subunit of the signal peptidase complex (SEC11A-Myc-FLAG) (enzyme, UniProt P67812 1-179)
chain: MLSLDFLDDVRRMNKRQLYYQVLNFGMIVSSALMIWKGLMVITGSESPIVVVLSGSMEPAFHRGDLLFLTNRVEDPIRVGEIVVFRIEGREIPIVHRVLKIHEKQNGHIKFLTKGDNNAVDDRGLYKQGQHWLEKKDVVGRARGFVPYIGIVTILMNDYPKFKYAVLFLLGLFVLVHRE
B1: the binding result in experiment [2] is “binds”.
